Data from publication PMC7862700.
Some of the results follow. The source does not settle which construct or isoform was used.

target: T1, ETV4 (UniProt P43268); experiment: DAPPL (digital affinity profiling via proximity ligation, sequencing); conditions: 10 mM Tris-HCl pH 7.5, 50 mM NaCl, 1 mM DTT, 4% glycerol, room temperature, 30 min; GST-TFs on glutathione beads, 16-mer random dsDNA library, 0.1% …; high values mean tight binding; double strand, one strand shown; scale: fold enrichment (6-mer frequency, TF over GST control)
T1 sequence: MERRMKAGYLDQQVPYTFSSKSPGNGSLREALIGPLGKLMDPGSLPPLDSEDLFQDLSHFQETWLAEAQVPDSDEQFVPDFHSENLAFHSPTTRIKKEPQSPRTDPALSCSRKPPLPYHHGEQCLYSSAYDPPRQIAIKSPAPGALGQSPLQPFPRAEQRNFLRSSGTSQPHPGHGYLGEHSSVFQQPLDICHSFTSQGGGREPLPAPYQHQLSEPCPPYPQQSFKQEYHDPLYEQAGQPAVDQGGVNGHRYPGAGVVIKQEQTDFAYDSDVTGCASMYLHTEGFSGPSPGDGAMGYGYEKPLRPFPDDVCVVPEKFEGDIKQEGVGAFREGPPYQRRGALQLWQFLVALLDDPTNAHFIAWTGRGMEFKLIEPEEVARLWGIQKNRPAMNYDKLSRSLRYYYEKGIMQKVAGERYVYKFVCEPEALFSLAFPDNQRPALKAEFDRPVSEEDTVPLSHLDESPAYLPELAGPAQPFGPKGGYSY

Sequence | binding signal
CCGTCA | 1.28
GCTACG | 1.27
AACCCG | 1.37
CTCACG | 1.33
CCGAAA | 1.14
TTTTCG | 1.18
AACTGG | 1.31
ACTCTG | 1.44
CTAGCA | 1.34
CCCCCT | 1.29
TGCCTT | 1.4
ACGTCT | 1.19
GGATTT | 1.26
TGAAAT | 0.936
TCACTG | 1.23
TTCTCT | 1.39
CCATAC | 1.21
ACTGAC | 1.2
TATATT | 1.36
ATCTGG | 1.22

Two neighbouring records from above:
Sequence | binding signal
ACGTCT | 1.19
GGATTT | 1.26

The list goes on:

Sequence | binding signal
AAACGC | 1.27
TCCATT | 1.31
CTCTCC | 1.42
TCTTGG | 1.29
TGCTAG | 1.18
TATATC | 1.51
GATATG | 1.13
TTAGGT | 1.08
TCTTAT | 1.27
ATACAT | 1.31
TCGCCC | 1.36
GCTGTT | 1.05
AAATAG | 1.11
CACCAA | 1.01
CTTTCG | 1.22
CTACGG | 1.38
CTGACA | 1.31
CCGACA | 1.21
TATAAA | 1.24
GCGAAT | 1.06
